Measured values: PubChem BioAssay AID1794845 (National Center for Advancing Translational Sciences (NCATS), 2023)
Out of some 6,900 compounds screened, fewer than 10 were called active. The call rests on the fitted dose curve; in most records, active means well fitted curve in the direction sought with a large enough effect; inconclusive means small, poorly fitted or top-dose-only effect, or another doubt; inactive means no such curve, though single readings can be large or run the other way. Some of the results follow.

The chains behind the UniProt entries cited, without tags or fusion partners. Where a name states a change or a piece, a line headed by the entry shows the natural chain unless it says otherwise.
UniProt C7C422: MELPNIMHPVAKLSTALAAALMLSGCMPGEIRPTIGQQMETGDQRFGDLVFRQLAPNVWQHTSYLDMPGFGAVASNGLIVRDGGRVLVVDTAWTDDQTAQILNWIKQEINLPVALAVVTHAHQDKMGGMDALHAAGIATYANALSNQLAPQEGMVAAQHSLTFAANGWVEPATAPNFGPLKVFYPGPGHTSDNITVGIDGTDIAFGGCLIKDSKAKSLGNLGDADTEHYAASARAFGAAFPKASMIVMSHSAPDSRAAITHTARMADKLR

biological target: Metallo-beta-lactamase type 2 (Klebsiella pneumoniae) (UniProt C7C422); assay: qHTS to identify inhibitors of the New Delhi Metallo-beta-lactamase (NDM): primary screen against the NCATS Gemini Collection; settings: NDM-1 enzyme, meropenem hydrolysis, absorbance 300 nm; at 38.4 µM (top of the series) unless noted; further: % of control where 0% means no effect
In short: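 Meropenem hydrolysis (50 uM final) by 2 nM NDM-1 read as 300 nm absorbance after 30 min, following >30 min compound–enzyme preincubation in HEPES pH 7.0 with 1 uM ZnSO4 and 0.01% Tween20.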

Activity % (negative = inhibition), inactive:
O=C(CCC1CCCC1)NCc1nnc2cc(-c3nc(C4CC4)no3)ccn12 -1.8%
O=c1c2c(nc3cc[nH]n13)CN(S(=O)(=O)c1cccc(C(F)(F)F)c1)CC2 4.85%
O=c1cc(N2CCOCC2)oc2c(Nc3ccccn3)nccc12 10.6% [at 57.5 µM]
O=C1CCN(Cc2ccncc2)CCCC(C(=O)N2CCCC2)CCN1 (stereo not drawn) 11.5%
O=C(c1ccccn1)N1CCC2(CNc3ccccc3[S+](=O)([O-])N2)C1 (stereo not drawn) 24.1%
COCc1cn2c(=O)n(C)cc(-c3ccnc(OC)c3)c2n1 13.5% [at 57.5 µM]
COC[C@@H]1CN(C(=O)c2cc(OC)cc(OC)c2)C[C@H]1c1ccncc1 -1.24%
O=C(C1CCCCC1)N1CCC(n2cc(-c3nc(-c4ccccc4)no3)nn2)CC1 14.9%
CC1(C(=O)Nc2ccccc2)CCc2cnc(N3CCOCC3)nc21 (stereo not drawn) 2.42% [at 57.5 µM]
CCC#CCN1CCc2ccccc2N(CC(O)COCc2ccco2)CCC1=O (stereo not drawn) 32.1% [at 16.1 µM]
CCNC(=O)CC1COCCN1C(=O)c1csc(-c2cccs2)n1 (stereo not drawn) 19.4%
CN1C[C@@H](NC(=O)c2ccc(C#N)cc2)C[C@H]1c1nc(Cc2ccccc2)no1 1.33% [at 57.5 µM]
COCCc1noc(-c2ccc(Cn3nc(C)cc3C)cc2)n1 11.9%
COCc1ccc(C(=O)N2CCN(CCO)CC(O)C2)cc1 (stereo not drawn) 3.88%
CCOc1ccc2ccccc2c1C(C(=O)O)N1CCN(CC2CC2)CC1 (stereo not drawn) 9.88%
CN1CCN(C(=O)CC[C@@H]2CNC(=O)[C@@H]3C[C@H](NC(=O)c4cccc(F)c4)CN23)CC1 -0.0255% [at 57.5 µM]
O=C(c1ccc(Br)cc1)N1CCN(c2cc(-c3ccccc3)[nH]n2)CC1 2.1%
Cc1csc(NC(=O)c2nc3c(o2)CCN(Cc2ccccc2F)CC3)n1 19.1% [at 57.5 µM]
COC1CCN(C(=O)Nc2ccccc2)CC(=O)N(C)c2ccccc21 (stereo not drawn) -1.13%
CC(C)N1CCN(C(=O)c2csc(N3CCN(c4cccc(Cl)c4)CC3)n2)CC1 -1.73%
O=[S+]1([O-])[C@@H](c2ccccc2)[C@H](COCc2ccccc2)CN1C1CC1 33.1%
Cc1noc(C)c1CC(=O)N1CC(=O)N(C2CCCCC2)CC(OCc2ccccc2)C1 (stereo not drawn) 4.51%
Cn1c(Cn2ccnc2)nnc1C1CC(NC(=O)c2ccc(CO)o2)C1 (stereo not drawn) 0.138%
